Measurements from patent publication US8071768B2, “Alkylquinoline and alkylquinazoline kinase modulators” (Janssen Pharmaceutica, N.V., priority 2005, dated 2011).
Some results were stated once for a whole list of compounds, not compound by compound.

Test: Tolerability in the MV4-11 xenograft study (body weight, overt clinical signs)
Format: in vivo, nude mice
Conditions: across all dose groups
Text: In pilot growth studies, the following conditions were identified as permitting MV4-11 cell growth in nude mice as subcutaneous solid tumor xenografts: Immediately prior to injection, cells were washed in PBS and counted, suspended 1:1 in a mixture of PBS:Matrigel (BD Biosciences) and then loaded into pre-chilled 1 cc syringes equipped with 25 gauge needles. Female athymic nude mice weighing no less than 20-21 grams were inoculated subcutaneously in the left inguinal region of the thigh with 5×10^6 tumor cells in a delivery volume of 0.2 mL. For regression studies, the tumors were allowed to grow to a pre-determined size prior to initiation of dosing.
Mice were weighed three times each week (M, W, F) during the study and were examined daily at the time of dosing for overt clinical signs of any adverse, drug-related side effects.

SMILES	mean loss of body weight, of initial body weight
O=C1CCCN1CCOc1ccc2c(C3CCN(C(=O)Nc4ccc(N5CCCC5)cc4)CC3)ncnc2c1 [Compound 74, 4-{7-[2-(2-Oxo-pyrrolidin-1-yl)-ethoxy]-quinazolin-4-yl}-piperidine-1-carboxylic acid (4-pyrrolidin-1-yl-phenyl)-amide]	< 3%
CN1CCN(CCCOc2ccc3c(C4CCN(C(=O)Nc5ccc(N6CCOCC6)cc5)CC4)ncnc3c2)CC1 [Compound 73, 4-{7-[3-(4-Methyl-piperazin-1-yl)-propoxy]-quinazolin-4-yl}-piperidine-1-carboxylic acid (4-morpholin-4-yl-phenyl)-amide]	< 3%
